From US6841547B2, “Method for decreasing low density lipoprotein” (Albert Einstein College of Medicine of Yeshevia University, priority 2003, dated 2005)
Where two headings read alike, the source gives them in different places. At least one structure is not confirmed: it was looked up by name or label, or the drawing left a doubt. Some entries repeat one wording, which the source may state once for all of them.

Legend:
[1] = cholesterol-fed rabbits; cited from earlier work
[2] = cited from earlier work; for Effect on serum cholesterol levels: in vivo
[3] = 6-month regimen of sub-antibacterial doxycycline: cholesterol fractions in plasma of acute coronary syndrome patients with elevated baseline cholesterol; assay type: in vivo, human
Description: After six months, the cholesterol fractions were then measured (Table 1). Table 1: The Effect of a 6-Month Regimen of Sub-Antibacterial Doxycycline on Cholesterol Values in Plasma of Acute Coromary Syndrome Patients with Elevated Baseline Cholesterol

[4] = Sub-antibacterial doxycycline in diabetic patients with elevated cholesterol and CRP levels; assay type: in vivo, human; conditions: 20 mg twice a day for at least two months
[5] = humans; cited from earlier work
C-reactive protein (CRP) = conditions: treatment with pravastatin; cited from earlier work
[6] = after six months of sub-antibacterial doxycycline

CN(C)[C@@H]1C(O)=C(C(N)=O)C(=O)[C@@]2(O)C(O)=C3C(=O)c4c(O)ccc(Cl)c4[C@@](C)(O)[C@H]3C[C@@H]12 [chlortetracycline]
Effect on serum cholesterol levels [1]: either has no effect or increases | Effect on serum cholesterol levels [2]: reduces serum cholesterol levels | Effect on serum cholesterol levels in patients with hypercholesterolemia ([2]; patients with hypercholesterolemia): reduces levels

C[C@H]1c2cccc(O)c2C(=O)C2=C(O)[C@]3(O)C(=O)C(C(N)=O)=C(O)[C@@H](N(C)C)[C@@H]3[C@@H](O)[C@@H]21 [doxycycline]
Effect on serum cholesterol levels [2]: reduce serum cholesterol levels | Change Due to Treatment, HDL-Cholesterol ([3]; 6 months vs baseline, doxycycline 20 mg twice a day): No Change | LDL-cholesterol level reached after treatment [3, 6]: around normal levels | Total plasma cholesterol level reached after treatment [3, 6]: normal levels | Effect on CRP levels [4]: A decrease in CRP levels was also observed | Effect on LDL-cholesterol [4]: decreased LDL-cholesterol | Effect on lipid profile [4]: improved the patients lipid profile

CN(C)c1ccc(O)c2c1C[C@H]1C[C@H]3[C@H](N(C)C)C(O)=C(C(N)=O)C(=O)[C@@]3(O)C(O)=C1C2=O [minocycline]
Effect on serum cholesterol levels [2]: reduce serum cholesterol levels

CN(C)[C@@H]1C(O)=C(C(N)=O)C(=O)[C@@]2(O)C(O)=C3C(=O)c4c(O)cccc4[C@@](C)(O)[C@H]3[C@H](O)[C@@H]12 [oxytetracycline]
Effect on LDL-cholesterol [5]: no effect | Effect on serum cholesterol [5]: no effect | Effect on serum cholesterol levels [2]: reduce serum cholesterol levels

CC[C@H](C)C(=O)O[C@H]1C[C@H](O)C=C2C=C[C@H](C)[C@H](CC[C@@H](O)C[C@@H](O)CC(=O)O)[C@H]21 [pravastatin]
Effect on levels of CRP (C-reactive protein (CRP)): reduced levels of CRP
